These are yes or no findings as the source states them, for the method shown. Some results given as binding are weak or reduced against the parent protein; the word gives no strength.
Assays:
[1] = target: recombinant human TACE catalytic domain (Arg215-Val477-GlySer-His6) (human) (UniProt P78536); test: ELISA on immobilised catalytic domain
[2] = target: recombinant human TACE ectodomain (Arg215-Arg651) (human) (UniProt P78536); test: competition ELISA: immobilised TACE ectodomain pre-incubated with titrated N-TIMP-3, then probed with D1(A12) FAb [panel B]

The chains behind the UniProt entries cited, without tags or fusion partners. Where a name states a change or a piece, a line headed by the entry shows the natural chain unless it says otherwise.
UniProt P78536: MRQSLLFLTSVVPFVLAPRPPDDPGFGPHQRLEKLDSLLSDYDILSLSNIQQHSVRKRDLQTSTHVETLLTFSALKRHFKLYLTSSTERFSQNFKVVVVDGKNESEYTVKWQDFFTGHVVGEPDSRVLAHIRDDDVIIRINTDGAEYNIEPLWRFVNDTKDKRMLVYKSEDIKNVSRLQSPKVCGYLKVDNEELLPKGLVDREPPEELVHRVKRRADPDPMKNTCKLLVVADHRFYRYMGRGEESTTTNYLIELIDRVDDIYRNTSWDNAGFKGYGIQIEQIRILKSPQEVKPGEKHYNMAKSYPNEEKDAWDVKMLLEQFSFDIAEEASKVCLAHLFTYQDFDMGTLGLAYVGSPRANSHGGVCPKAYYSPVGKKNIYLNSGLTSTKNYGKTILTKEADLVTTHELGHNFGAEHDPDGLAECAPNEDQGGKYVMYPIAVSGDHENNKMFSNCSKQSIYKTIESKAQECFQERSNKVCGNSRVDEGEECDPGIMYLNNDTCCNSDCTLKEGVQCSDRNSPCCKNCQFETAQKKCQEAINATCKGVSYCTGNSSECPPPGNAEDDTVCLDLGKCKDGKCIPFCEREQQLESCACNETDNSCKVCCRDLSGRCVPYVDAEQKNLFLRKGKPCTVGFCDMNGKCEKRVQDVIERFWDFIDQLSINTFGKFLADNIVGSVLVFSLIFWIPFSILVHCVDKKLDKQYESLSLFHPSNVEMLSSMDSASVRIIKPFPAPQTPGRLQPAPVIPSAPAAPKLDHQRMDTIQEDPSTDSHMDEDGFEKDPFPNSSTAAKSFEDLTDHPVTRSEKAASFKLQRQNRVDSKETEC

B1: N-TIMP-3 (other, UniProt P35625 24-144, looked up)
chain: CTCSPSHPQDAFCNSDIVIRAKVVGKKLVKEGPFGTLVYTIKQMKMYRGFTKMPHVQYIHTEASESLCGLKLEVNKYQYLLTGRVYDGKMYTGLCNFVERWDQLTLSQRKGLNYRYHLGCN
notes: domain: N-terminal fragment; also called amino-terminal domain of TIMP-3
binding [1]: binds | binding [2]: binds
